Laboratory results as given in US9888688B2, “Tetrazolinone compounds and applications thereof” (Sumitomo Chemical Company, Limited, priority 2013, dated 2018).
Like-named read-outs stand apart in the source and are kept apart here. Some entries share one result that the patent states for a list of compounds.

Tested on: cucumber powdery mildew fungus (Sphaerotheca fuliginea, a QoI-resistant strain, cytochrome b position 143 glycine to alanine)
Type: in vivo
Conditions: cucumber SAGAMI HANJIRO, 8 days

Structure (SMILES): CCc1cccc(-c2ccc(OCc3c(C4CC4)cccc3-n3nnn(C)c3=O)c(C)c2)n1 [Present Compound 47]
- area of lesion spots relative to that on an untreated plant (200 ppm foliar spray): ≤ 30%
- area of lesion spots relative to that on an untreated plant (500 ppm foliar spray): ≤ 30%

Structure (SMILES): Cc1cc(Cl)nc(-c2cc(C)c(OCc3c(C)cccc3-n3nnn(C)c3=O)cc2C)c1 [Present Compound 183]
- area of lesion spots relative to that on an untreated plant (200 ppm foliar spray): ≤ 30%
- area of lesion spots relative to that on an untreated plant (500 ppm foliar spray): ≤ 30%

Structure (SMILES): CCOc1cccc(-n2nnn(C)c2=O)c1COc1ccc(-c2ccc(Cl)cn2)cc1C [Present Compound 29]
- area of lesion spots relative to that on an untreated plant (500 ppm foliar spray): ≤ 30%

Structure (SMILES): Cc1cc(C)nc(-c2ccc(OCc3c(C)cccc3-n3nnn(C)c3=O)c(C)c2)c1 [Present Compound 151]
- area of lesion spots relative to that on an untreated plant (200 ppm foliar spray): ≤ 30%
- area of lesion spots relative to that on an untreated plant (500 ppm foliar spray): ≤ 30%

Structure (SMILES): Cc1cc(-c2cc(Cl)ccn2)ccc1OCc1c(C)cccc1-n1nnn(C)c1=O [Present Compound 14]
- area of lesion spots relative to that on an untreated plant (200 ppm foliar spray): ≤ 30%
- area of lesion spots relative to that on an untreated plant (500 ppm foliar spray): ≤ 30%

Structure (SMILES): Cc1cc(-c2ccncn2)ccc1OCc1c(C)cccc1-n1nnn(C)c1=O [Present Compound 88]
- area of lesion spots relative to that on an untreated plant (500 ppm foliar spray): ≤ 30%

Structure (SMILES): Cc1cc(-c2ccc(OCc3c(C)cccc3-n3nnn(C)c3=O)c(C)c2)ccn1 [Present Compound 113]
- area of lesion spots relative to that on an untreated plant (200 ppm foliar spray): ≤ 30%
- area of lesion spots relative to that on an untreated plant (500 ppm foliar spray): ≤ 30%

Structure (SMILES): Cc1cc(-c2cc(Cl)ccn2)ccc1OCc1c(C2CC2)cccc1-n1nnn(C)c1=O [Present Compound 15]
- area of lesion spots relative to that on an untreated plant (200 ppm foliar spray): ≤ 30%
- area of lesion spots relative to that on an untreated plant (500 ppm foliar spray): ≤ 30%

Structure (SMILES): Cc1cc(-c2ncc(Br)cn2)ccc1OCc1c(C)cccc1-n1nnn(C)c1=O [Present Compound 199]
- area of lesion spots relative to that on an untreated plant (200 ppm foliar spray): ≤ 30%
- area of lesion spots relative to that on an untreated plant (500 ppm foliar spray): ≤ 30%

Structure (SMILES): COc1cccc(-n2nnn(C)c2=O)c1COc1ccc(-c2cccc(C)n2)cc1C [Present Compound 49]
- area of lesion spots relative to that on an untreated plant (200 ppm foliar spray): ≤ 30%
- area of lesion spots relative to that on an untreated plant (500 ppm foliar spray): ≤ 30%

Structure (SMILES): Cc1cc(-c2cc(Cl)ccn2)c(C)cc1OCc1c(C)cccc1-n1nnn(C)c1=O [Present Compound 159]
- area of lesion spots relative to that on an untreated plant (200 ppm foliar spray): ≤ 30%
- area of lesion spots relative to that on an untreated plant (500 ppm foliar spray): ≤ 30%

Structure (SMILES): Cc1ccnc(-c2ccc(OCc3c(C4CC4)cccc3-n3nnn(C)c3=O)c(C)c2)n1 [Present Compound 92]
- area of lesion spots relative to that on an untreated plant (200 ppm foliar spray): ≤ 30%
- area of lesion spots relative to that on an untreated plant (500 ppm foliar spray): ≤ 30%

Structure (SMILES): Cc1cc(-c2ccncn2)c(C)cc1OCc1c(C)cccc1-n1nnn(C)c1=O [Present Compound 202]
- area of lesion spots relative to that on an untreated plant (500 ppm foliar spray): ≤ 30%

Structure (SMILES): CCc1cccc(-n2nnn(C)c2=O)c1COc1ccc(-c2nccc(C)n2)cc1C(F)(F)F [Present Compound 138]
- area of lesion spots relative to that on an untreated plant (200 ppm foliar spray): ≤ 30%
- area of lesion spots relative to that on an untreated plant (500 ppm foliar spray): ≤ 30%

Structure (SMILES): Cc1cc(-c2cccc(C(F)(F)F)n2)c(C)cc1OCc1c(C)cccc1-n1nnn(C)c1=O [Present Compound 169]
- area of lesion spots relative to that on an untreated plant (200 ppm foliar spray): ≤ 30%
- area of lesion spots relative to that on an untreated plant (500 ppm foliar spray): ≤ 30%

Structure (SMILES): Cc1cc(-c2cccc(Cl)n2)c(C)cc1OCc1c(Cl)cccc1-n1nnn(C)c1=O [Present Compound 176]
- area of lesion spots relative to that on an untreated plant (200 ppm foliar spray): ≤ 30%
- area of lesion spots relative to that on an untreated plant (500 ppm foliar spray): ≤ 30%

Structure (SMILES): Cc1cc(-c2ccc(F)cn2)c(C)cc1OCc1ccccc1-n1nnn(C)c1=O [Present Compound 216]
- area of lesion spots relative to that on an untreated plant (200 ppm foliar spray): ≤ 30%
- area of lesion spots relative to that on an untreated plant (500 ppm foliar spray): ≤ 30%

Structure (SMILES): Cc1cc(-c2ccc(F)cn2)c(C)cc1OCc1c(Cl)cccc1-n1nnn(C)c1=O [Present Compound 217]
- area of lesion spots relative to that on an untreated plant (500 ppm foliar spray): ≤ 30%

Structure (SMILES): Cc1ccc(C)c(-c2ccc(OCc3c(C)cccc3-n3nnn(C)c3=O)c(C)c2)n1 [Present Compound 147]
- area of lesion spots relative to that on an untreated plant (200 ppm foliar spray): ≤ 30%
- area of lesion spots relative to that on an untreated plant (500 ppm foliar spray): ≤ 30%

Structure (SMILES): CCOc1cccc(-n2nnn(C)c2=O)c1COc1ccc(-c2nccc(C)n2)cc1C [Present Compound 94]
- area of lesion spots relative to that on an untreated plant (200 ppm foliar spray): ≤ 30%
- area of lesion spots relative to that on an untreated plant (500 ppm foliar spray): ≤ 30%

Structure (SMILES): Cc1cc(-c2ncccn2)ccc1OCc1ccccc1-n1nnn(C)c1=O [Present Compound 87]
- area of lesion spots relative to that on an untreated plant (200 ppm foliar spray): ≤ 30%

Structure (SMILES): Cc1cccc(-c2cc(C)c(OCc3c(C)cccc3-n3nnn(C)c3=O)cc2C)n1 [Present Compound 153]
- area of lesion spots relative to that on an untreated plant (500 ppm foliar spray): ≤ 30%

Structure (SMILES): COc1cccc(-n2nnn(C)c2=O)c1COc1ccc(-c2ccnc(C)n2)cc1C [Present Compound 78]
- area of lesion spots relative to that on an untreated plant (200 ppm foliar spray): ≤ 30%
- area of lesion spots relative to that on an untreated plant (500 ppm foliar spray): ≤ 30%

Structure (SMILES): Cc1cc(-c2cccnc2)ccc1OCc1c(C2CC2)cccc1-n1nnn(C)c1=O [Present Compound 64]
- area of lesion spots relative to that on an untreated plant (200 ppm foliar spray): ≤ 30%
- area of lesion spots relative to that on an untreated plant (500 ppm foliar spray): ≤ 30%

Structure (SMILES): COc1cccc(-c2cc(C)c(OCc3c(C)cccc3-n3nnn(C)c3=O)cc2C)n1 [Present Compound 170]
- area of lesion spots relative to that on an untreated plant (200 ppm foliar spray): ≤ 30%
- area of lesion spots relative to that on an untreated plant (500 ppm foliar spray): ≤ 30%

Structure (SMILES): Cc1cc(-c2cccc(C(F)(F)F)n2)ccc1OCc1c(C2CC2)cccc1-n1nnn(C)c1=O [Present Compound 36]
- area of lesion spots relative to that on an untreated plant (200 ppm foliar spray): ≤ 30%
- area of lesion spots relative to that on an untreated plant (500 ppm foliar spray): ≤ 30%

Structure (SMILES): Cc1cccc(-c2ccc(OCc3c(C4CC4)cccc3-n3nnn(C)c3=O)c(C)c2)n1 [Present Compound 52]
- area of lesion spots relative to that on an untreated plant (200 ppm foliar spray): ≤ 30%
- area of lesion spots relative to that on an untreated plant (500 ppm foliar spray): ≤ 30%

Structure (SMILES): Cc1cc(-c2cccc(Cl)n2)ccc1OCc1c(C2CC2)cccc1-n1nnn(C)c1=O [Present Compound 40]
- area of lesion spots relative to that on an untreated plant (200 ppm foliar spray): ≤ 30%
- area of lesion spots relative to that on an untreated plant (500 ppm foliar spray): ≤ 30%

Structure (SMILES): Cc1cc(-c2ccnc(Cl)c2)ccc1OCc1c(C)cccc1-n1nnn(C)c1=O [Present Compound 107]
- area of lesion spots relative to that on an untreated plant (200 ppm foliar spray): ≤ 30%
- area of lesion spots relative to that on an untreated plant (500 ppm foliar spray): ≤ 30%

Structure (SMILES): Cc1cc(-c2ncccc2C)ccc1OCc1ccccc1-n1nnn(C)c1=O [Present Compound 10]
- area of lesion spots relative to that on an untreated plant (200 ppm foliar spray): ≤ 30%
- area of lesion spots relative to that on an untreated plant (500 ppm foliar spray): ≤ 30%

Structure (SMILES): Cc1cc(-c2ncc(Cl)cn2)ccc1OCc1c(C)cccc1-n1nnn(C)c1=O [Present Compound 237]
- area of lesion spots relative to that on an untreated plant (200 ppm foliar spray): ≤ 30%
- area of lesion spots relative to that on an untreated plant (500 ppm foliar spray): ≤ 30%

Structure (SMILES): CCc1ccnc(-c2ccc(OCc3c(C4CC4)cccc3-n3nnn(C)c3=O)c(C)c2)n1 [Present Compound 143]
- area of lesion spots relative to that on an untreated plant (200 ppm foliar spray): ≤ 30%
- area of lesion spots relative to that on an untreated plant (500 ppm foliar spray): ≤ 30%

Structure (SMILES): Cc1ccnc(-c2ccc(OCc3c(C)cccc3-n3nnn(C)c3=O)c(C)c2)n1 [Present Compound 91]
- area of lesion spots relative to that on an untreated plant (200 ppm foliar spray): ≤ 30%
- area of lesion spots relative to that on an untreated plant (500 ppm foliar spray): ≤ 30%

Structure (SMILES): CCc1cccc(-c2ccc(OCc3c(OC)cccc3-n3nnn(C)c3=O)c(C)c2)n1 [Present Compound 45]
- area of lesion spots relative to that on an untreated plant (200 ppm foliar spray): ≤ 30%
- area of lesion spots relative to that on an untreated plant (500 ppm foliar spray): ≤ 30%

Structure (SMILES): Cc1cc(-c2ncc(C3CC3)cn2)ccc1OCc1c(C)cccc1-n1nnn(C)c1=O [Present Compound 247]
- area of lesion spots relative to that on an untreated plant (500 ppm foliar spray): ≤ 30%

Structure (SMILES): Cc1cc(-c2ccc(Cl)cn2)ccc1OCc1c(C)cccc1-n1nnn(C)c1=O [Present Compound 27]
- area of lesion spots relative to that on an untreated plant (200 ppm foliar spray): ≤ 30%
- area of lesion spots relative to that on an untreated plant (500 ppm foliar spray): ≤ 30%

Structure (SMILES): Cc1cc(OCc2c(C)cccc2-n2nnn(C)c2=O)c(Cl)cc1-c1ncc(Cl)cn1 [Present Compound 196]
- area of lesion spots relative to that on an untreated plant (200 ppm foliar spray): ≤ 30%
- area of lesion spots relative to that on an untreated plant (500 ppm foliar spray): ≤ 30%

Structure (SMILES): COc1cccc(-n2nnn(C)c2=O)c1COc1ccc(-c2ccccn2)cc1C [Present Compound 4]
- area of lesion spots relative to that on an untreated plant (200 ppm foliar spray): ≤ 30%
- area of lesion spots relative to that on an untreated plant (500 ppm foliar spray): ≤ 30%

Structure (SMILES): Cc1cc(-c2ccc(Cl)nc2)ccc1OCc1c(C)cccc1-n1nnn(C)c1=O [Present Compound 105, 1-{3-methyl-2-[2-methyl-4-(6-chloropyridin-3-yl)-phenoxymethyl]-phenyl}-4-methyl-1,4-dihydrotetrazol-5-one]
- area of lesion spots relative to that on an untreated plant (200 ppm foliar spray): ≤ 30%
- area of lesion spots relative to that on an untreated plant (500 ppm foliar spray): ≤ 30%

Structure (SMILES): Cc1cc(-c2cnccc2C)ccc1OCc1c(C)cccc1-n1nnn(C)c1=O [Present Compound 71]
- area of lesion spots relative to that on an untreated plant (50 ppm foliar spray, inoculated after 1 day): ≤ 30%

Structure (SMILES): CCc1ccnc(-c2ccc(OCc3c(C)cccc3-n3nnn(C)c3=O)c(C)c2)n1 [Present Compound 139]
- area of lesion spots relative to that on an untreated plant (200 ppm foliar spray): ≤ 30%
- area of lesion spots relative to that on an untreated plant (500 ppm foliar spray): ≤ 30%

Structure (SMILES): Cc1cc(-c2ccccn2)ccc1OCc1c(C)cccc1-n1nnn(C)c1=O [Present Compound 5]
- area of lesion spots relative to that on an untreated plant (200 ppm foliar spray): ≤ 30%
- area of lesion spots relative to that on an untreated plant (500 ppm foliar spray): ≤ 30%

Structure (SMILES): Cc1cc(-c2ncccc2C)ccc1OCc1c(C2CC2)cccc1-n1nnn(C)c1=O [Present Compound 9]
- area of lesion spots relative to that on an untreated plant (200 ppm foliar spray): ≤ 30%
- area of lesion spots relative to that on an untreated plant (500 ppm foliar spray): ≤ 30%

Structure (SMILES): Cn1nnn(-c2cccc(Cl)c2COc2cc(F)c(-c3ccccn3)cc2F)c1=O [Present Compound 208]
- area of lesion spots relative to that on an untreated plant (200 ppm foliar spray): ≤ 30%
- area of lesion spots relative to that on an untreated plant (500 ppm foliar spray): ≤ 30%

Structure (SMILES): CCOc1cccc(-n2nnn(C)c2=O)c1COc1ccc(-c2ccnc(C)n2)cc1C [Present Compound 80]
- area of lesion spots relative to that on an untreated plant (200 ppm foliar spray): ≤ 30%
- area of lesion spots relative to that on an untreated plant (500 ppm foliar spray): ≤ 30%

Structure (SMILES): Cc1cc(-c2cccc(C#N)n2)ccc1OCc1c(C2CC2)cccc1-n1nnn(C)c1=O [Present Compound 116]
- area of lesion spots relative to that on an untreated plant (200 ppm foliar spray): ≤ 30%
- area of lesion spots relative to that on an untreated plant (500 ppm foliar spray): ≤ 30%

Structure (SMILES): Cc1cc(-c2ccc(F)cn2)ccc1OCc1c(C)cccc1-n1nnn(C)c1=O [Present Compound 185]
- area of lesion spots relative to that on an untreated plant (200 ppm foliar spray): ≤ 30%

Structure (SMILES): CCc1cccc(-n2nnn(C)c2=O)c1COc1cc(C)c(-c2ccc(F)cn2)cc1C [Present Compound 215]
- area of lesion spots relative to that on an untreated plant (200 ppm foliar spray): ≤ 30%
- area of lesion spots relative to that on an untreated plant (500 ppm foliar spray): ≤ 30%
